Experimental data as given in patent US20020119154A1 (University of Pennsylvania, published 2002).
No constants are given. Whether binding was seen depends on the method and setting. Binding seen in cells or lysates may run through a third protein. Some entries that bind do so weakly or less than the wild type.

Chains of the proteins cited; added tags and fusions are not shown. Residues count along the entry.
UniProt P16471, residues 25-234: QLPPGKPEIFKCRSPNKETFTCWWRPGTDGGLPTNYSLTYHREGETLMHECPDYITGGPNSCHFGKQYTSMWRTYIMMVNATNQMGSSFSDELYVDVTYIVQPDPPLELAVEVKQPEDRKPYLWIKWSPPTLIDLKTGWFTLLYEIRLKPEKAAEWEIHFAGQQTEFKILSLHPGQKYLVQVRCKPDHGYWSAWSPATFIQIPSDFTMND

Columns and labels:
[1] = molecular target: T1, human prolactin (hPRL) (human, UniProt P01236 29-227); assay: co-immunoprecipitation from human serum (anti-PRL IP, anti-PRLR mAb blot)
T1 sequence (looked up): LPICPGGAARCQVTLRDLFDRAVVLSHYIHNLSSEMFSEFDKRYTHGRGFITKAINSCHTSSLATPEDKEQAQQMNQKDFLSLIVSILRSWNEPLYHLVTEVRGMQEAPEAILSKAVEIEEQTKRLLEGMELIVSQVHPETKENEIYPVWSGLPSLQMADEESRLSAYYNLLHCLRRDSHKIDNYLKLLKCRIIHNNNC

[2] = molecular target: T1, human prolactin (hPRL); assay: co-immunoprecipitation from pre-cleared human serum: IP α-PRL with IB α-PRLR (A), IP α-PRLR with IB α-PRL (C) [C]
[3] = molecular target: T1, human prolactin (hPRL); assay: co-immunoprecipitation from human serum
[4] = molecular target: T1, human prolactin (hPRL); assay: co-immunoprecipitation from human serum, figure legend

Measured: binding

human prolactin-binding protein (hPRLBP) from human serum (from UniProt P16471 25-234) (receptor)
binds: all assays above
